Results as given in the supplement of paper PMC7661543.
Differences between knockout arms are mostly noise.

Tested on: HCC-38
Test: relative cell number vs DMSO control (72 h) (% of DMSO); higher = less growth inhibition (more cells)
Description: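 QMAP-Seq: a pool of 5 breast cancer cell lines (ZR-75-1, SKBR3, HCC-38, MDA-MB-231, BT-20), each carrying 12 doxycycline-inducible Cas9 sgRNA perturbations (11 knockouts plus non-targeting sgNT), was treated with compounds for 72 h at four 10-fold doses (10 nM-10 uM or 1 nM-1 uM range). Barcodes were amplified and sequenced, and cell number was interpolated from 293T spike-in standard curves. The result is expressed as % of the median of DMSO wells. Two biological replicates.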

COc1nc(N)nc2c1ncn2[C@@H]1O[C@H](CO)[C@@H](O)[C@@H]1O [Nelarabine]
Details	relative cell number
sgRNA knockout: sgATF3, 10 nM	123
sgRNA knockout: sgATF3, 100 nM	110
sgRNA knockout: sgATF3, 1000 nM	99.9
sgRNA knockout: sgATF3, 10000 nM	107
sgRNA knockout: sgATF4, 10 nM	125
sgRNA knockout: sgATF4, 100 nM	97.6
sgRNA knockout: sgATF4, 1000 nM	87.9
sgRNA knockout: sgATF4, 10000 nM	110
sgRNA knockout: sgATF6, 10 nM	117
sgRNA knockout: sgATF6, 100 nM	99.1
sgRNA knockout: sgATF6, 1000 nM	119.6
sgRNA knockout: sgATF6, 10000 nM	117
sgRNA knockout: sgATG7, 10 nM	101.2
sgRNA knockout: sgATG7, 100 nM	104.6
sgRNA knockout: sgATG7, 1000 nM	104
sgRNA knockout: sgATG7, 10000 nM	99.3
sgRNA knockout: sgERN1, 10 nM	110
sgRNA knockout: sgERN1, 100 nM	99.3
sgRNA knockout: sgERN1, 1000 nM	90.7
sgRNA knockout: sgERN1, 10000 nM	104
sgRNA knockout: sgHSF1, 10 nM	109
sgRNA knockout: sgHSF1, 100 nM	104
sgRNA knockout: sgHSF1, 1000 nM	91.6
sgRNA knockout: sgHSF1, 10000 nM	99.3
sgRNA knockout: sgHSF2, 10 nM	115
sgRNA knockout: sgHSF2, 100 nM	111
sgRNA knockout: sgHSF2, 1000 nM	101
sgRNA knockout: sgHSF2, 10000 nM	108.38
sgRNA knockout: sgKEAP1, 10 nM	96.6
sgRNA knockout: sgKEAP1, 100 nM	111
sgRNA knockout: sgKEAP1, 1000 nM	104.1
sgRNA knockout: sgKEAP1, 10000 nM	118
sgRNA knockout: sgNFE2L2, 10 nM	113
sgRNA knockout: sgNFE2L2, 100 nM	98.9
sgRNA knockout: sgNFE2L2, 1000 nM	88.7
sgRNA knockout: sgNFE2L2, 10000 nM	108.6
sgRNA knockout: sgSLC35F2, 10 nM	109
sgRNA knockout: sgSLC35F2, 100 nM	108
sgRNA knockout: sgSLC35F2, 1000 nM	97.9
sgRNA knockout: sgSLC35F2, 10000 nM	105.4
sgRNA knockout: sgXBP1, 10 nM	113
sgRNA knockout: sgXBP1, 100 nM	97.6
sgRNA knockout: sgXBP1, 1000 nM	95.8
sgRNA knockout: sgXBP1, 10000 nM	109

COc1cc2nc(N3CCCN(C)CC3)nc(NC3CCN(Cc4ccccc4)CC3)c2cc1OC
Details	relative cell number
sgRNA knockout: sgATF3, 10 nM	120
sgRNA knockout: sgATF3, 100 nM	108
sgRNA knockout: sgATF3, 1000 nM	80.9
sgRNA knockout: sgATF3, 10000 nM	5.49
sgRNA knockout: sgATF4, 10 nM	109
sgRNA knockout: sgATF4, 100 nM	119
sgRNA knockout: sgATF4, 1000 nM	82.2
sgRNA knockout: sgATF4, 10000 nM	5.39
sgRNA knockout: sgATF6, 10 nM	112
sgRNA knockout: sgATF6, 100 nM	98.9
sgRNA knockout: sgATF6, 1000 nM	83.6
sgRNA knockout: sgATF6, 10000 nM	4.37
sgRNA knockout: sgATG7, 10 nM	105
sgRNA knockout: sgATG7, 100 nM	96.6
sgRNA knockout: sgATG7, 1000 nM	78.3
sgRNA knockout: sgATG7, 10000 nM	5.72
sgRNA knockout: sgERN1, 10 nM	94.7
sgRNA knockout: sgERN1, 100 nM	106
sgRNA knockout: sgERN1, 1000 nM	82.1
sgRNA knockout: sgERN1, 10000 nM	4.61
sgRNA knockout: sgHSF1, 10 nM	89.6
sgRNA knockout: sgHSF1, 100 nM	98.1
sgRNA knockout: sgHSF1, 1000 nM	78.4
sgRNA knockout: sgHSF1, 10000 nM	5.42
sgRNA knockout: sgHSF2, 10 nM	106
sgRNA knockout: sgHSF2, 100 nM	103
sgRNA knockout: sgHSF2, 1000 nM	89.3
sgRNA knockout: sgHSF2, 10000 nM	4.7
sgRNA knockout: sgKEAP1, 10 nM	96
sgRNA knockout: sgKEAP1, 100 nM	101
sgRNA knockout: sgKEAP1, 1000 nM	93.4
sgRNA knockout: sgKEAP1, 10000 nM	6.21
sgRNA knockout: sgNFE2L2, 10 nM	107
sgRNA knockout: sgNFE2L2, 100 nM	110
sgRNA knockout: sgNFE2L2, 1000 nM	78.5
sgRNA knockout: sgNFE2L2, 10000 nM	4.67
sgRNA knockout: sgSLC35F2, 10 nM	99.6
sgRNA knockout: sgSLC35F2, 100 nM	106
sgRNA knockout: sgSLC35F2, 1000 nM	83.9
sgRNA knockout: sgSLC35F2, 10000 nM	5.81
sgRNA knockout: sgXBP1, 10 nM	112
sgRNA knockout: sgXBP1, 100 nM	107
sgRNA knockout: sgXBP1, 1000 nM	80.9
sgRNA knockout: sgXBP1, 10000 nM	5.47

C=C(c1ccc(C(=O)O)cc1)c1cc2c(cc1C)C(C)(C)CCC2(C)C [Bexarotene]
Details	relative cell number
sgRNA knockout: sgATF3, 10 nM	92
sgRNA knockout: sgATF3, 100 nM	91.7
sgRNA knockout: sgATF3, 1000 nM	100
sgRNA knockout: sgATF3, 10000 nM	109
sgRNA knockout: sgATF4, 10 nM	86.1
sgRNA knockout: sgATF4, 100 nM	92.6
sgRNA knockout: sgATF4, 1000 nM	104
sgRNA knockout: sgATF4, 10000 nM	107
sgRNA knockout: sgATF6, 10 nM	90.8
sgRNA knockout: sgATF6, 100 nM	87.1
sgRNA knockout: sgATF6, 1000 nM	107
sgRNA knockout: sgATF6, 10000 nM	118
sgRNA knockout: sgATG7, 10 nM	85.5
sgRNA knockout: sgATG7, 100 nM	100
sgRNA knockout: sgATG7, 1000 nM	104
sgRNA knockout: sgATG7, 10000 nM	100
sgRNA knockout: sgERN1, 10 nM	92.1
sgRNA knockout: sgERN1, 100 nM	89.6
sgRNA knockout: sgERN1, 1000 nM	99.6
sgRNA knockout: sgERN1, 10000 nM	98.7
sgRNA knockout: sgHSF1, 10 nM	94.9
sgRNA knockout: sgHSF1, 100 nM	81.3
sgRNA knockout: sgHSF1, 1000 nM	116.33
sgRNA knockout: sgHSF1, 10000 nM	106
sgRNA knockout: sgHSF2, 10 nM	97.9
sgRNA knockout: sgHSF2, 100 nM	88
sgRNA knockout: sgHSF2, 1000 nM	114
sgRNA knockout: sgHSF2, 10000 nM	108
sgRNA knockout: sgKEAP1, 10 nM	113
sgRNA knockout: sgKEAP1, 100 nM	106
sgRNA knockout: sgKEAP1, 1000 nM	124
sgRNA knockout: sgKEAP1, 10000 nM	95.1
sgRNA knockout: sgNFE2L2, 10 nM	82.3
sgRNA knockout: sgNFE2L2, 100 nM	91
sgRNA knockout: sgNFE2L2, 1000 nM	99.4
sgRNA knockout: sgNFE2L2, 10000 nM	114
sgRNA knockout: sgSLC35F2, 10 nM	82.2
sgRNA knockout: sgSLC35F2, 100 nM	94.6
sgRNA knockout: sgSLC35F2, 1000 nM	106
sgRNA knockout: sgSLC35F2, 10000 nM	106
sgRNA knockout: sgXBP1, 10 nM	82.3
sgRNA knockout: sgXBP1, 100 nM	100
sgRNA knockout: sgXBP1, 1000 nM	102
sgRNA knockout: sgXBP1, 10000 nM	101
